Results from one PubChem assay

The results are deposited in PubChem (AID463188; University of Pittsburgh Molecular Library Screening Center, 2010).

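Counterscreen z-score for each compound in a recombinant Hck-YEEI:Nef Z-Lyte FRET kinase setup using a p-Tyr peptide, with a 50 min kinase step and 60 min development. Compounds were tested at a single concentration of 10 µM. The number is a z-score for the p-Tyr peptide counterscreen; higher values mean a stronger counterscreen signal, and values above 3 mark a compound as likely interfering.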

Common to all entries: measured here: p-Tyr peptide counterscreen. Part of the compounds only, not a random draw; the main read-out is not listed here.

Compound	z-score
Cc1ccc(CNc2ncccc2-c2nc3cc(Cl)ccc3o2)cc1	1.421
CC(=O)Nc1sc(N/N=C\c2ccc(O)cc2)nc1-c1cccs1	-1.416
CCOc1cc(/C=N\Nc2nc(-c3ccc(C)cc3)c(NC(C)=O)s2)ccc1O	-0.7973
CCN(CC)c1ccc(/C=C2\C(=O)c3ccc(C(=O)O)cc3C2=O)cc1	-1.808
CCCC(=O)Nc1ccc(Cl)c(NC(=O)c2cccc(OC)c2)c1	0.6932
CC1=CC(C)[C@H](/C=N/n2c(=O)[nH]c3c([nH]c4ccc(Br)cc43)c2=O)C(C)C1 (stereo partly drawn)	-1.973
COc1ccc2oc(/C=C/N(C)C)c(C(=O)c3ccc(Cl)cc3)c2c1	3.98
CC1=NNC(=O)/C1=C\c1cn(-c2ccccc2)nc1-c1ccc(Cl)cc1	1.283
CCNc1ccc2c(Cl)cc(=O)oc2c1	33.26
CCOC(=O)c1c(C)oc2c1c(C(c1ccncc1)N1CCOCC1)c(O)c1ccccc12 (stereo not drawn)	1.517
O=c1[nH]c2ccc(N=Cc3c(O)ccc4cc(Br)ccc34)cc2[nH]1	-0.3171
COc1cc(/C=C/C(=O)OCC(=O)Nc2ccc(C)cc2[N+](=O)[O-])ccc1O	-0.08008
CC1=NNC(=O)/C1=C\c1cn(-c2ccccc2)nc1-c1ccc(F)cc1	-1.905
COc1ccc(/C=C2/C(=O)N(Cc3ccco3)C(=O)N(C(C)C)C2=O)cc1	-1.429
CCOc1cc(/C=C2\SC(=S)N(C(C(=O)O)c3ccccc3)C2=O)ccc1O (stereo not drawn)	-0.2172
CCOC(=O)COc1ccc(/C=C2/SC(=Nc3ccccc3)N(Cc3cccnc3)C2=O)cc1OC	-1.039
Nc1nn2cc(-c3ccccc3)nc2c2ccccc12	0.5019
N#C/C(=C\c1coc2ccc(O)cc2c1=O)C(=O)Nc1nc2ccccc2s1	0.07958
Cc1cc(=O)oc2cc(OC(=O)c3ccco3)ccc12	68.55
CSc1ccccc1NC(=O)c1cc(-c2cccnc2)nc2ccc(Br)cc12	-0.8636
COC(=O)c1sc(-c2ccc(C(C)(C)C)cc2)cc1NC(=O)c1ccccc1C(=O)O	-0.2349
N#Cc1ccccc1NC(=O)CN1CC=C(c2ccccc2)CC1	-1.333
CCN1CCCc2cc(CN(CCN3CCOCC3)C(=S)Nc3ccc(OC)cc3)ccc21	-1.946
COc1ccc(-c2nnc(SCC(=O)Nc3sc4c(c3C#N)CCCC4)n2-c2ccccc2)cc1	2.342
C=CCN1C(=O)NC(=O)/C(=C/C=C/c2ccccc2)C1=O	-1.304
O=C(/C=C/N1CCOCC1)c1ccc(-c2ccccc2)cc1	0.5844
O=C(N/N=C\c1coc2ccccc2c1=O)c1ccco1	-1.464
COC(=O)c1ccccc1NC(=O)c1ccc2c(c1)C(=O)N(Cc1ccco1)C2=O	0.8616
O=C(Nc1nn[nH]n1)c1cc(-c2ccc(Cl)c(Cl)c2Cl)nc2ccccc12	0.00928
O=C(c1ccco1)N(Cc1ccc2c(c1)OCO2)Cc1cc2cc3c(cc2[nH]c1=O)OCO3	-0.6177
Cc1ccc(NC(=O)Cn2c(O)c(N=NC(=O)c3cc([N+](=O)[O-])ccc3O)c3ccccc32)cc1	-0.4484
Cc1ccc([N+](=O)[O-])cc1N=Nc1c(-c2ccc([N+](=O)[O-])cc2)[nH]n(C(N)=S)c1=O	-2.025
COC(=O)c1ccccc1NC(=O)N1CCN(Cc2ccco2)CC1	-0.7336
COc1ccc(C2=NN(C(=O)CCCC(=O)O)C(c3cn(-c4ccccc4)nc3-c3ccccc3)C2)cc1 (stereo not drawn)	-0.05871
CCc1nc(SCC(=O)Nc2ccc3c(c2)OCCO3)c2oc3ccccc3c2n1	-0.3963
Cc1ccc(NC(=O)c2cc(-c3ccco3)nc3ccccc23)cc1S(=O)(=O)N1CCOCC1	-0.0308
Cc1ccc(NC(=O)CN(C)Cc2nc3c(Br)cc(Br)cc3c(=O)[nH]2)cc1	-0.09022
COc1cccc(NC(=O)Cn2c(=O)n(-c3cc(OC)c(OC)c(OC)c3)c(=O)c3ccccc32)c1	-1.281
O=C1/C(=C/c2ccco2)CCc2ccccc21	-1.752
O=C1C=CC(O)(c2cc(=O)c3c(O)cc(O)cc3o2)C=C1	-1.676
Cc1cc2c(n1-c1ccc(Br)cc1)CC(C)(C)CC2=O	0.9321
COc1ccc(-c2oc3ncnc(NCCN4CCOCC4)c3c2-c2ccc(OC)cc2)cc1	0.9777
COc1ccccc1/C=C/C=N/NC(=O)c1cc(-c2ccco2)[nH]n1	0.3479
O=c1[nH]c(CSc2ncnc3sc(-c4ccccc4)cc23)nc2ccccc12	-1.287
Cn1cnc2c(N/N=C/c3cccs3)ncnc21	-1.337
COC1C(OC(=O)c2ccc(C)[nH]2)C(O)C(Oc2ccc3c(O)c(NC(=O)c4ccc(O)c(CC=C(C)C)c4)c(=O)oc3c2Cl)OC1(C)C (stereo not drawn)	-1.786
CCC(=O)OC1(C)C(=O)C2=COC(c3ccc(OC)cc3)=CC2=C(Br)C1=O (stereo not drawn)	-1.843
CCC12CN3CC(CC)(CN(C1)C3c1ccc([N+](=O)[O-])o1)C2=O (stereo not drawn)	-0.6772
CCCn1c(NC(=O)c2ccc(Cl)c(S(=O)(=O)N3CCCC3)c2)nc2ccccc21	1.459
CCN1C(=O)/C(=C/c2ccc3c(c2)CCN3CCCCl)C(=O)NC1=S	-0.7053
CCn1nc(C)c(NC(=O)/C=C/c2ccc(OC)c(COc3ccc(Cl)cc3Br)c2)c1C	2.557
C=CCn1c(C)cc(C(=O)Cn2ncc(Cl)c(Cl)c2=O)c1C	0.357
C(=C\c1ccco1)/c1ccc2ccccc2n1	1.814
O=C1NC(=S)N(c2ccc(F)cc2)C(=O)/C1=C\c1ccoc1	-0.5785
COC(=O)c1sc(NC(=O)/C=C/c2ccccc2Cl)nc1C	-1.538
COc1ccc2nc3c(cc2c1)c(NC(=O)C1CCCO1)nn3CC(C)C (stereo not drawn)	25.44
COc1ccc(N2CCN(CCNC(=O)c3ccc4c(c3)[nH]c(=S)n3c5ccccc5nc43)CC2)cc1	-2.168
Cc1cc(C)c2c(c1)/C(=N\N=c1\sc3ccccc3n1C)C(=O)N2	0.05415
CCCSc1nc2c(cnn2-c2ccccc2)c(=O)n1N	-0.1261
COc1ccccc1N1CCN(C(=O)CSc2nc(C)c(C)c(=O)[nH]2)CC1	-1.906
O=C(N=Nc1c(O)n(C2OC(=O)c3ccccc32)c2ccccc12)c1ccco1 (stereo not drawn)	-2.325
Cc1cc(SCC(=O)OCC(=O)c2c(N)n(C)c(=O)n(C)c2=O)c(C)cc1Br	-0.6837
CN1C(=O)NC(=O)/C(=C\C=C\c2ccccc2[N+](=O)[O-])C1=O	-1.306
CCOc1cc(N2CCOCC2)c(OCC)cc1NC(=O)c1ccc2ccccc2n1	-0.7191
O=C(O)c1ccc(N/N=C/c2ccc(-c3cccc(Cl)c3)o2)cc1	26.01
CC(C)n1cnc2c(Nc3cccc(Cl)c3)nc(NCCCO)nc21	0.2764
O=C1NC(=O)N(CCc2ccc(F)cc2)C(=O)/C1=C/c1ccco1	-0.905
COc1ccc(N2C(=O)NC(=O)/C(=C\c3ccc([N+](=O)[O-])s3)C2=O)cc1	-0.1915
COc1cc(NC(=S)Nc2cccc(C)n2)cc(OC)c1OC	0.5939
Oc1cc2c(cc1C(c1ccc(Br)cc1)N1CCCC1)OCO2 (stereo not drawn)	-1.161
COc1ccc(CNC(=O)CCNS(=O)(=O)c2cccc3nsnc23)cc1	-0.9273
Cc1ccc(NC(=O)CN2C(=O)S/C(=C\c3cccn3-c3cccc(C(=O)O)c3)C2=O)c(C)c1	2.653
COc1ccc(/C=N/Nc2nc(-c3ccc(C)cc3)c(NC(C)=O)s2)cc1OC	0.7454
CCOC(=O)c1c(C)[nH]c(C(=O)OCC(=O)N2CCc3ccccc32)c1C	-1.419
O=C(C1=NN[C@@H]2C(=O)N(c3cccc(C(F)(F)F)c3)C(=O)[C@H]12)c1cnccn1	-1.643
O=[N+]([O-])c1ccc(N/N=C/c2ccc(O)c(O)c2O)c(S(=O)(=O)N2CCOCC2)c1	-1.517
Cc1ccc2c(c1)=NC(=O)/C(=C/c1c(O)[nH]c(=O)[nH]c1=O)C=2	-0.3335
COC(=O)c1sc(N)c(C(=O)OC)c1COC(=O)[C@@H](NS(=O)(=O)c1cccc(Cl)c1)C(C)C	0.4383
Fc1cccc(Cl)c1CSc1nnc(CN2CCOCC2)n1-c1ccccc1	2.021
Cc1cc(C)cc(NC(=O)c2ccc(CSc3nnc(C)s3)cc2)c1	1.417
N=C1/C(=C\c2ccc(-c3cccc(C(=O)O)c3)o2)C(=O)N=C2SC=C(c3ccccc3)N12	-1.6
COC(C)(C)c1cc(C(C)(C)C)nc(N)n1	2.262
COc1ccc(/C=C2\C(=O)ON=C2c2cccc([N+](=O)[O-])c2)cc1	-1.263
O=C1SC(SCc2ccccc2Cl)=N/C1=C\c1ccc(C(=O)O)cc1	0.3091
CC(C)(C)SCCNC(=O)c1ccccc1	1.677

Some entries from above, unchanged:

| Compound | z-score |
|---|---|
| `O=c1[nH]c(CSc2ncnc3sc(-c4ccccc4)cc23)nc2ccccc12` | -1.287 |
| `CC1=NNC(=O)/C1=C\c1cn(-c2ccccc2)nc1-c1ccc(F)cc1` | -1.905 |
| `O=C(O)c1ccc(N/N=C/c2ccc(-c3cccc(Cl)c3)o2)cc1` | 26.01 |
| `COC(=O)c1ccccc1NC(=O)N1CCN(Cc2ccco2)CC1` | -0.7336 |
| `Cc1ccc(CNc2ncccc2-c2nc3cc(Cl)ccc3o2)cc1` | 1.421 |